# PubChem BioAssay AID1259308, NCATS – 2017
# Test: 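Genes whose loss raises luciferase production in HEK293 cells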 (primary screen)
# Cells: human HEK293 embryonic kidney cells stably expressing firefly luciferase (HEK-CMV-Luc2-Hygro)
# Reagent: single siRNA against human genes, 0.8 pmol siRNA per well
# Time to read-out: 72 h
# Read-out: 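Reporter luminescence and viable-cell signal on separate replicate plates, given as percent of non-targeting control and median/MAD z-scores, plus per-cell luciferase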
# Scale: total luciferase, z-score and total luciferase, % of control: higher = more reporter protein produced; luciferase per cell, z-score: higher = more reporter output per viable cell; viable cells, % of control: higher = more viable cells
# Call rule: 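Active when the median/MAD z-score for overall luciferase is greater than 3; a gene was taken forward for validation with new siRNAs if at least two of its three siRNAs passed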
# Meaning of the calls: active = raised luciferase; inactive = no rise
# This is one part, drawn at random, of about 59,000 reagents tested. About 1,510 of all reagents (2.6%) were called active. 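Calls use total luciferase alone and ignore viability, so some active siRNAs may act by altering cell number.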 A number with no mark means an inactive call. Reagents against one gene are numbered here. Reagent sequences are not shown.
gene symbol,reagent no.,"total luciferase, z-score","total luciferase, % of control","luciferase per cell, z-score","viable cells, % of control"
ADGRB3 (adhesion G protein-coupled receptor B3),1,0.995,102,1.28,81.2
ADGRB3 (adhesion G protein-coupled receptor B3),2,-1.07,60.6,-1.03,88.8
ADGRB3 (adhesion G protein-coupled receptor B3),3,-0.463,72.7,-0.403,90.3
TRIM15 (tripartite motif containing 15),1,-0.203,77.8,-0.26,93.1
TRIM15 (tripartite motif containing 15),2,-0.226,77.4,-0.228,91.8
TRIM15 (tripartite motif containing 15),3,-0.612,69.7,-0.338,85.1
CYP2C8 (cytochrome P450 family 2 subfamily C member 8),1,0.223,86.3,0.356,87.8
CYP2C8 (cytochrome P450 family 2 subfamily C member 8),2,-1.06,60.9,-0.905,86.3
CYP2C8 (cytochrome P450 family 2 subfamily C member 8),3,-0.933,63.3,-0.918,90.1
NAV1 (neuron navigator 1),1,-0.331,75.3,-0.485,95.6
NAV1 (neuron navigator 1),2,-0.267,76.6,-0.6,100
NAV1 (neuron navigator 1),3,-1.72,47.8,-1.13,71.8
PMVK (phosphomevalonate kinase),1,-0.771,66.6,-0.846,92.9
PMVK (phosphomevalonate kinase),2,2.67,135,1.96,89.9
PMVK (phosphomevalonate kinase),3,3.24 (active),146,2.75,79.3
FFAR4 (free fatty acid receptor 4),1,2.95,141,1.85,96.4
FFAR4 (free fatty acid receptor 4),2,0.663,95.1,-0.234,113
FFAR4 (free fatty acid receptor 4),3,0.606,93.9,0.329,96.3
RNF186 (ring finger protein 186),1,-0.428,73.4,0.266,76.5
RNF186 (ring finger protein 186),2,1.06,103,0.569,99.1
RNF186 (ring finger protein 186),3,-0.412,73.7,-0.73,99.8
CYB561D1 (cytochrome b561 family member D1),1,0.928,100,0.731,92.5
CYB561D1 (cytochrome b561 family member D1),2,0.139,84.7,0.106,92
CYB561D1 (cytochrome b561 family member D1),3,-0.466,72.6,-0.565,94.2

Next part, starting with the last 5 of the part before.
gene symbol,reagent no.,"total luciferase, z-score","total luciferase, % of control","luciferase per cell, z-score","viable cells, % of control"
RNF186 (ring finger protein 186),2,1.06,103,0.569,99.1
RNF186 (ring finger protein 186),3,-0.412,73.7,-0.73,99.8
CYB561D1 (cytochrome b561 family member D1),1,0.928,100,0.731,92.5
CYB561D1 (cytochrome b561 family member D1),2,0.139,84.7,0.106,92
CYB561D1 (cytochrome b561 family member D1),3,-0.466,72.6,-0.565,94.2
BMPR1A (bone morphogenetic protein receptor type 1A),1,1.4,110,1.62,80
BMPR1A (bone morphogenetic protein receptor type 1A),2,0.775,97.3,2.46,56.8
BMPR1A (bone morphogenetic protein receptor type 1A),3,-0.223,77.5,-0.431,97
CALR3 (calreticulin 3),1,-2.17,38.7,-1.04,56.8
CALR3 (calreticulin 3),2,-0.0422,81,1.94,54.4
CALR3 (calreticulin 3),3,-0.402,73.9,-0.816,102
UGT3A1 (UDP glycosyltransferase family 3 member A1),1,-0.685,68.3,-0.925,97.3
UGT3A1 (UDP glycosyltransferase family 3 member A1),2,-0.133,79.2,0.142,85.3
UGT3A1 (UDP glycosyltransferase family 3 member A1),3,-0.874,64.5,-1.48,106
CLDN10 (claudin 10),1,-1.54,51.3,-0.604,67.2
CLDN10 (claudin 10),2,4.14 (active),164,4.12,62.1
CLDN10 (claudin 10),3,0.654,94.9,0.738,87.3
HERC2 (HECT and RLD domain containing E3 ubiquitin protein ligase 2),1,1.86,119,1,102
HERC2 (HECT and RLD domain containing E3 ubiquitin protein ligase 2),2,-0.529,71.4,-1.23,110
HERC2 (HECT and RLD domain containing E3 ubiquitin protein ligase 2),3,-0.143,79,-0.44,99.2
TIA1 (TIA1 cytotoxic granule associated RNA binding protein),1,-1.51,51.9,-1.01,75.6
TIA1 (TIA1 cytotoxic granule associated RNA binding protein),2,0.376,89.4,-0.0739,102
TIA1 (TIA1 cytotoxic granule associated RNA binding protein),3,1.58,113,2.49,65.8
ORC1 (origin recognition complex subunit 1),1,-0.683,68.3,-0.0951,78.3
ORC1 (origin recognition complex subunit 1),2,1.46,111,0.766,101
ORC1 (origin recognition complex subunit 1),3,-0.629,69.4,-0.323,84.4
LETR1 (lymphatic endothelial transcriptional regulator lncRNA 1),1,-1.62,49.6,-0.6,64.9
LETR1 (lymphatic endothelial transcriptional regulator lncRNA 1),2,-0.232,77.3,-0.396,95.8
LETR1 (lymphatic endothelial transcriptional regulator lncRNA 1),3,0.429,90.4,-0.0976,104
NDUFAF7 (NADH:ubiquinone oxidoreductase complex assembly factor 7),1,1.77,117,0.86,104
NDUFAF7 (NADH:ubiquinone oxidoreductase complex assembly factor 7),2,2.6,134,3.03,67.3
NDUFAF7 (NADH:ubiquinone oxidoreductase complex assembly factor 7),3,-0.0533,80.8,0.587,77.4
IFNL1 (interferon lambda 1),1,0.699,95.8,1.32,75.6
IFNL1 (interferon lambda 1),2,-1.49,52.2,-1.49,86.3
IFNL1 (interferon lambda 1),3,0.388,89.6,-0.165,105
WDR19 (WD repeat domain 19),1,0.867,99.1,0.369,101
WDR19 (WD repeat domain 19),2,-2.71,28.1,-2.89,67.1
WDR19 (WD repeat domain 19),3,-1.24,57.3,-1.29,90
